Results deposited as PubChem BioAssay AID504774 (Drosophila RNAi Screening Center, 2011)
Screen: 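Fly genes whose loss alters survival after alkylation damage to DNA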 (primary screen). Cells: Drosophila Kc167 cells. Knock-down reagent: long dsRNA against Drosophila genes, about 0.25 µg dsRNA per well. Duration: about 6 days: 3 days knock-down, then 3 days with or without MMS. Treatment: methyl methanesulphonate 0.004% (w/v) for 3 days after knock-down. Detection: 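Viability in wells given MMS, read as ATP luminescence, normalised by quantiles plate by plate and averaged across replicates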. Direction: mean viability with MMS: higher = more surviving cells after MMS.
The screen tested about 23,000 reagents; this is a random part of those that have a named target and a result. 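Values are quantile-normalised luminescence on an arbitrary scale; higher means more cells surviving MMS.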 Names joined by + are all predicted targets of the reagent. Not all columns of the deposit are shown. Reagent sequences are not shown.

hoe2 (hoepel2) [DRSC00459] scored mean viability with MMS 3.67e6.
With knock-down of CG3270 [DRSC04988], the record shows mean viability with MMS 3.57e6.
Knock-down of CG15395 [DRSC00409] gave: mean viability with MMS 3.31e6.
With knock-down of CG10600 [DRSC02074], the screen gave mean viability with MMS 3.45e6.
Depletion of lncRNA:roX2 (long non-coding RNA on the X 2) [DRSC22237] came out at: mean viability with MMS 3.52e6.
Ccp84Ac [DRSC12588] gave mean viability with MMS 3.61e6.
With knock-down of CG32024 [DRSC21883], the record shows mean viability with MMS 3.49e6.
With knock-down of Sps2 (Selenophosphate synthetase 2) [DRSC03441], the screen gave mean viability with MMS 3.57e6.
After knock-down of dimm (dimmed) [DRSC03100], the screen gave mean viability with MMS 3.49e6.
With knock-down of CG10431 [DRSC02055] the results were mean viability with MMS 3.65e6.
After knock-down of CG11927 [DRSC00337] the results were mean viability with MMS 3.42e6.
Dgkepsilon (Diacyl glycerol kinase epsilon) [DRSC07399] gave mean viability with MMS 3.49e6.
Depletion of CG7943 [DRSC16351] gave: mean viability with MMS 3.54e6.
Knock-down of cu (curled) [DRSC15643] gave: mean viability with MMS 3.49e6.
For cu (curled) [DRSC15648], the values are mean viability with MMS 3.49e6.
With knock-down of Damm (Death associated molecule related to Mch2 caspase) [DRSC07393], the screen gave mean viability with MMS 3.58e6.
Depletion of CG7848 [DRSC07050] came out at: mean viability with MMS 3.45e6.
Against Fatp3 (Fatty acid transport protein 3) [DRSC04366], the entry reads mean viability with MMS 3.59e6.
Ag5r (Antigen 5-related) [DRSC19327] gave mean viability with MMS 3.84e6.
For l(2)03659 (lethal (2) 03659) [DRSC07269], the entry reads mean viability with MMS 3.68e6.
With knock-down of l(2)03659 (lethal (2) 03659) [DRSC07638], the screen gave mean viability with MMS 3.65e6.
Amy-d + Amy-p [DRSC21242] gave mean viability with MMS 3.52e6.
Knock-down of CG5608 [DRSC15841] resulted in: mean viability with MMS 3.61e6.
After knock-down of pont (pontin) [DRSC17029] the results were mean viability with MMS 2.86e6.
